Values of other authors, collected in US8598383B2, “Pharmaceutical composition for treating or preventing degenerative and inflammatory diseases” (Neurotech Pharmaceuticals Co., Ltd., priority 2006, dated 2013).
Some of these results come from one statement about several compounds together.

System: atherosclerosis
Settings: early formation of atherosclerotic lesion; cited from earlier work

## CS(=O)(=O)Nc1ccc([N+](=O)[O-])cc1OC1CCCCC1 [NS-398]
  reduction of atherosclerosis: 35-38%

## CS(=O)(=O)c1ccc(C2=C(c3ccccc3)C(=O)OC2)cc1 [rofecoxib]
  reduction of atherosclerosis: 35-38%
